Experimental data as given in the supplement of paper PMC10849652.
The list shows a part of the results.

Chains of the proteins cited; added tags and fusions are not shown. Lines headed by an entry give the natural chain unless they say otherwise; changes in a name come on top.
UniProt Q9NUP1: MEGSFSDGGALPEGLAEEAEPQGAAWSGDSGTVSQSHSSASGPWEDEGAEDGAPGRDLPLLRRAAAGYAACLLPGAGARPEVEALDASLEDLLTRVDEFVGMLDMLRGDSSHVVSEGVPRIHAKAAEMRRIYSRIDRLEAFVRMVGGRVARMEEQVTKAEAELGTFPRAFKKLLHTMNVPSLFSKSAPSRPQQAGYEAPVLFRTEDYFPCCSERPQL
UniProt Q8TD16, whole entry, looked up: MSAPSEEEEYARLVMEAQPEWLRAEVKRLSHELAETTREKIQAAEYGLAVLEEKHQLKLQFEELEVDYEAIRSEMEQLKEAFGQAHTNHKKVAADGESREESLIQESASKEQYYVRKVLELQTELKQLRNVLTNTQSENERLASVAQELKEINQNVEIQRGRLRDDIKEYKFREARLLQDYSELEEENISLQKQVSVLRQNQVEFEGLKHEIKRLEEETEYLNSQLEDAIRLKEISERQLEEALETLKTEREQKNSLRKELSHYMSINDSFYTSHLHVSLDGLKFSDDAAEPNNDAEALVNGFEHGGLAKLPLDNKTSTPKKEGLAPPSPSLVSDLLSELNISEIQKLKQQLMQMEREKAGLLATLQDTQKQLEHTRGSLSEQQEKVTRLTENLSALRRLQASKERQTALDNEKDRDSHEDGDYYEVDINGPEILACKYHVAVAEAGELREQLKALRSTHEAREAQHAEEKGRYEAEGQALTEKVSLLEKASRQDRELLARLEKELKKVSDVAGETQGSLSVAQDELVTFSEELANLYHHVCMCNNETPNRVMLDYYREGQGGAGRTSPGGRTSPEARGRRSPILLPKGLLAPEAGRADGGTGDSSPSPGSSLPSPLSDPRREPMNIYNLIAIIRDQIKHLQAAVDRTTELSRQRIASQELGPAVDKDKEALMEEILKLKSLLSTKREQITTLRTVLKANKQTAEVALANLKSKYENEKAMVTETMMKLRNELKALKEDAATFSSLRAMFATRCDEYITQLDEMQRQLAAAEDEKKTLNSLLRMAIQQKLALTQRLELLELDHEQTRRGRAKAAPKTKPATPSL
UniProt Q9UL45: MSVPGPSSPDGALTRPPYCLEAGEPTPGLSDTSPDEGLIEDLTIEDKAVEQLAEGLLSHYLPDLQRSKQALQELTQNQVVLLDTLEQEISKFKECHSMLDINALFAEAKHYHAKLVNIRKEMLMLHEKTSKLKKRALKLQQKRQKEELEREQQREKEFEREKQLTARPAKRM
UniProt P30043: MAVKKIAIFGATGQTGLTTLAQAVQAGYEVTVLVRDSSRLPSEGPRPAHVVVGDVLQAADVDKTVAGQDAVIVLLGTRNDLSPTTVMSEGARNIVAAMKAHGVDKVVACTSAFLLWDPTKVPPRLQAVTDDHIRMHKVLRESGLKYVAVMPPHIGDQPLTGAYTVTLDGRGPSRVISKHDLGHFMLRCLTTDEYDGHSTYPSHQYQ
UniProt Q8TDN6: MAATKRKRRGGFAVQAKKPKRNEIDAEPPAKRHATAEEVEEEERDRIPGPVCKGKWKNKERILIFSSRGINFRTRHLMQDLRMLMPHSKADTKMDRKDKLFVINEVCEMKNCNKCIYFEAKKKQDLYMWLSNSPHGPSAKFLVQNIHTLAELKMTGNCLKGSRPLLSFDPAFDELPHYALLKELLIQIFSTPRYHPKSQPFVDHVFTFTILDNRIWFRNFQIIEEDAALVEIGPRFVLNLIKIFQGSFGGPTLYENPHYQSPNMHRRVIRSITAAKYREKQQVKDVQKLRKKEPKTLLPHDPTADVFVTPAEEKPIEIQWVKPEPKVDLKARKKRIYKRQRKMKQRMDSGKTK
UniProt Q8NCR0: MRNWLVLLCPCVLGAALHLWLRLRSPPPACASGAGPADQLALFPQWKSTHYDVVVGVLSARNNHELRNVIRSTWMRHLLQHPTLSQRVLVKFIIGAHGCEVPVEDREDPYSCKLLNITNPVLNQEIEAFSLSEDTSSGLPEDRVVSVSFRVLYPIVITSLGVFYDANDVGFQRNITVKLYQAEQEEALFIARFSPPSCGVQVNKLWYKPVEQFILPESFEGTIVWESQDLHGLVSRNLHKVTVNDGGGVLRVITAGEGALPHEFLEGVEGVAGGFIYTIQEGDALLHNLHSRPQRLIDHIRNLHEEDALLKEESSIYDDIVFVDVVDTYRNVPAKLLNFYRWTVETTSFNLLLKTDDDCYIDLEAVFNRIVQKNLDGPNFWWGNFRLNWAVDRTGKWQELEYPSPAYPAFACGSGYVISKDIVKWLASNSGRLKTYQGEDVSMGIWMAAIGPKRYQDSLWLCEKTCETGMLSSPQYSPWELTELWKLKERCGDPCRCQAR
UniProt Q12981: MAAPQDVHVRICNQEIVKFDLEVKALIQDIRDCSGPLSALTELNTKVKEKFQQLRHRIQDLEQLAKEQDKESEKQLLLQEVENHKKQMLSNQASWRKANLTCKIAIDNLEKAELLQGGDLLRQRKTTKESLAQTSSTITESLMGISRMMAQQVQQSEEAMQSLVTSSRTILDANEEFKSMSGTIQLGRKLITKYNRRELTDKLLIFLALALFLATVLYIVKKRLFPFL
UniProt Q92843: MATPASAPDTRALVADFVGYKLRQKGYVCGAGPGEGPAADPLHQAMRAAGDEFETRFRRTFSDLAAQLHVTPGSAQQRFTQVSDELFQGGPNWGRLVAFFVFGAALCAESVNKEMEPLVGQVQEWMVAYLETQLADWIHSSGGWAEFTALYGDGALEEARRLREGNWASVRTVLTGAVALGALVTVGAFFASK
UniProt Q9P281: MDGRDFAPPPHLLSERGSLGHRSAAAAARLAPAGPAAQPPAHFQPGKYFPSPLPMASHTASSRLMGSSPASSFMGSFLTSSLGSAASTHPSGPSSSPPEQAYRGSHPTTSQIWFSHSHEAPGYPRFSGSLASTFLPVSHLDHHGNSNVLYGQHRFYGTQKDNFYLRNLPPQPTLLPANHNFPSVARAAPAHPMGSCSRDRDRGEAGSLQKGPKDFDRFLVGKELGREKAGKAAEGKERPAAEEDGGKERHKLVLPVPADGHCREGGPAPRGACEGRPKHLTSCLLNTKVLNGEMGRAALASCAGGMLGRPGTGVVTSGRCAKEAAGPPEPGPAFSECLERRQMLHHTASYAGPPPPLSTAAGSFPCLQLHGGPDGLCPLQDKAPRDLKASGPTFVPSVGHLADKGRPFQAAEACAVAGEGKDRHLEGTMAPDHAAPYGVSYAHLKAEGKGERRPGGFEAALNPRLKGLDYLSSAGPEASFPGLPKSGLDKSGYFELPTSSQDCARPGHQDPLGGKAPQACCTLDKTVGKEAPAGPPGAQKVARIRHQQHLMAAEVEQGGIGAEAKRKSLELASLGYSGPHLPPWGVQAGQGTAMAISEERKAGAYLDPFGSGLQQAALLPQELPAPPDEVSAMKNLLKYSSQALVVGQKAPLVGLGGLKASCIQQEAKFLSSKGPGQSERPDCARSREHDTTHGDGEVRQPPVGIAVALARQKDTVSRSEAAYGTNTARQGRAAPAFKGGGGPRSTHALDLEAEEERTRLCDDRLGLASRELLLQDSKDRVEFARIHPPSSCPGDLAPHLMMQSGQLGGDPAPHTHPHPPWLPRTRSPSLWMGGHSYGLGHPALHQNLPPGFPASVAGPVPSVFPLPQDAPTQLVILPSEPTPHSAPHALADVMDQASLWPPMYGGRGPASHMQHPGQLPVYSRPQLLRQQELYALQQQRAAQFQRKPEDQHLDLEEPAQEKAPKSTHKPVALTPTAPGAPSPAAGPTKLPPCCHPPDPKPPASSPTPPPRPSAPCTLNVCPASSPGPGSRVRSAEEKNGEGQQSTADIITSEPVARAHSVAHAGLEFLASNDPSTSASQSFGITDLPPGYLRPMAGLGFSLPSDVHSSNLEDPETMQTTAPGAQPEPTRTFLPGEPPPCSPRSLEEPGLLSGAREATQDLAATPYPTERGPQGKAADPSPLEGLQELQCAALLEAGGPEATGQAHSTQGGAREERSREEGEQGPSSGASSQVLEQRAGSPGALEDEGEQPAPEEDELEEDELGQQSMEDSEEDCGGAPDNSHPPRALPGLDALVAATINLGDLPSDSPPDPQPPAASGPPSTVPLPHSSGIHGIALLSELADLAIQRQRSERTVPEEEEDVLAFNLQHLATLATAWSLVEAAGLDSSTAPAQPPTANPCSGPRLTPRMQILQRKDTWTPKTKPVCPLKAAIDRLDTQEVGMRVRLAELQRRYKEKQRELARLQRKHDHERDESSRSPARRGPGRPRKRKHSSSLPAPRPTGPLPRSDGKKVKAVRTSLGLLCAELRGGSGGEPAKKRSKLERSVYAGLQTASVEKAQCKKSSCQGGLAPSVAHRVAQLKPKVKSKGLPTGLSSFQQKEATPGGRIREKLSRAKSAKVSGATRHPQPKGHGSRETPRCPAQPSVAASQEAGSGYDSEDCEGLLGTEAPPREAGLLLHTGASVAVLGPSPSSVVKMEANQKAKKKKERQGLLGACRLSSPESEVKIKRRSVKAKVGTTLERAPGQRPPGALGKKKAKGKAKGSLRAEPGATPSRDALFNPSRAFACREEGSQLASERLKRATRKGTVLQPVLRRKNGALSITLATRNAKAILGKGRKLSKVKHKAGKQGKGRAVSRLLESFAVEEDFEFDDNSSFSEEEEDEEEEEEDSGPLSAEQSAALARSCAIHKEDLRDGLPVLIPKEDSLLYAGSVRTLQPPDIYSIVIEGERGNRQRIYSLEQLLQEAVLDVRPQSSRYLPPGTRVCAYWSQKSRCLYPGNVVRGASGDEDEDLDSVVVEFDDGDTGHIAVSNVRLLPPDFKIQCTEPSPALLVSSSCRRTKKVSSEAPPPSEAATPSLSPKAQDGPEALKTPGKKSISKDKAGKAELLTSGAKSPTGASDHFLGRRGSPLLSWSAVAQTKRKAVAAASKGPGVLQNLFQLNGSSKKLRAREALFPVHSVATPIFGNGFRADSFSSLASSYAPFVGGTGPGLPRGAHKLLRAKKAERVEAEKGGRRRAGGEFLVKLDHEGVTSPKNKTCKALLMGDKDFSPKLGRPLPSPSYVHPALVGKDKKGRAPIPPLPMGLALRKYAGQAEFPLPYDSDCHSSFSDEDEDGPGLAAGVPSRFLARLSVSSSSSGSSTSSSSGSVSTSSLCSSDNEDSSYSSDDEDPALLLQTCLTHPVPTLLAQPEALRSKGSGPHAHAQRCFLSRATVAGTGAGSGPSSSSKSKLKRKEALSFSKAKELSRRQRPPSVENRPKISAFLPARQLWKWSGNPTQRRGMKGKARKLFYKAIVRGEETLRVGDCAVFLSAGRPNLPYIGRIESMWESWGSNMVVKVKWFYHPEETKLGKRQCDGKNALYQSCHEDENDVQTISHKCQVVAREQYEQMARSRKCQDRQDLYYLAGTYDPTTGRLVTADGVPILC
UniProt Q96G01: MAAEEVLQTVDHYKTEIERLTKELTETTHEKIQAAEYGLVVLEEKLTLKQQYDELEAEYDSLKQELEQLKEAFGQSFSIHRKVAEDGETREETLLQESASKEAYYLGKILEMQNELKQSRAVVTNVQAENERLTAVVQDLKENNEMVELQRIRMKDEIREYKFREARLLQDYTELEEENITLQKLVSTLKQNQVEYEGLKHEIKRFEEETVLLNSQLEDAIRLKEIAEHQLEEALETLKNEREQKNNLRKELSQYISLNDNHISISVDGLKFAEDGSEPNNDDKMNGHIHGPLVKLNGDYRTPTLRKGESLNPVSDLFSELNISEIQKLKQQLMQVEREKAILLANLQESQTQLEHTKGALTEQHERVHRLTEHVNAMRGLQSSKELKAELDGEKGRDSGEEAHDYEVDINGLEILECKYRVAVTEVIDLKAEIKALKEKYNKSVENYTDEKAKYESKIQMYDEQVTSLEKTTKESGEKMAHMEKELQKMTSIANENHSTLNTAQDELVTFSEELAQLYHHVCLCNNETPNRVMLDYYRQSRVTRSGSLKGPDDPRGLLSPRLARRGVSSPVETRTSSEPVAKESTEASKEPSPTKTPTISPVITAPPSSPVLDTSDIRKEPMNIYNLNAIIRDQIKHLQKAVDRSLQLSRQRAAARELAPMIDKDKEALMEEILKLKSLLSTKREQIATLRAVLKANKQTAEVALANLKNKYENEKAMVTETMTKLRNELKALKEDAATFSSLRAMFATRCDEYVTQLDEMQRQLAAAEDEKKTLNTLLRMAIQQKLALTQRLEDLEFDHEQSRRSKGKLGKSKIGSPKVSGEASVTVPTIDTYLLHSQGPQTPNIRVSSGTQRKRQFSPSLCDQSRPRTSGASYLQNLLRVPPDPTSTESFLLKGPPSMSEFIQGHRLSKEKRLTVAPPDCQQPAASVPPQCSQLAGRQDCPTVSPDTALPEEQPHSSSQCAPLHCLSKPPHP
UniProt Q8WY22: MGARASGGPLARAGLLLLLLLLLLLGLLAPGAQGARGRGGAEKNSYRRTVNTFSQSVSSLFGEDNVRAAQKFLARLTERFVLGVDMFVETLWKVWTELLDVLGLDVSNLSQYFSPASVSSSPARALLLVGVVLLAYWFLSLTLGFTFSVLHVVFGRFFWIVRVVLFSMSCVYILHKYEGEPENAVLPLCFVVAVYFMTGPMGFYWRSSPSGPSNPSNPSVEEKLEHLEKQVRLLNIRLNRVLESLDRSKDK

Experiments:
Experiment in all cases: log2 fold change, soluble protein after heating vs DMSO (PISA); higher = thermal stabilisation; K562 cells, 10 uM, 30 min; active = over 0.2 and 3.5 SD of the protein, either way, in both replicates (recomputed)
[1] = compound: CC1=C(C=C(C=C1)NC(=O)C2=CC(=CC=C2)C(C)(C)C#N)NC3=CC4=C(C=C3)N=CN(C4=O)C
How it was run: (§1)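 K562 cells at 2×10^6 cells/mL were given 10 μM compound for 30 min. Aliquots then went through 3 min of heating across 48°C-58°C, were pooled, and were extracted in PBS with 0.5% NP-40 at 4°C, and the supernatant after 21,000xg for 90 min was quantified by TMTpro 16plex LC-MS/MS with channel sums equalised. Thermal stability relative to control samples, from duplicates, is given as log2 fold change.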

[2] = compound: CC1=C(C=C(C=C1)NC(=O)C2=CC(=CC=C2)N(C)C)NC(=O)C3=CC=C(C=C3)O
How it was run: as §1

[3] = compound: CC1=CC=C(C=C1)SC2=C3C=C(SC3=CN=C2)C(=O)N
How it was run: as §1

[4] = compound: CC1=NC(=CC=C1)C2=C(N=C(N2)C(C)(C)C)C3=CC4=NC=CN=C4C=C3
How it was run: as §1

Nexturastat A = compound: CCCCN(Cc1ccc(C(=O)NO)cc1)C(=O)Nc1ccccc1 [Nexturastat A]
How it was run: as §1

vemurafenib = compound: CCCS(=O)(=O)Nc1ccc(F)c(C(=O)c2c[nH]c3ncc(-c4ccc(Cl)cc4)cc23)c1F [vemurafenib]
How it was run: as §1

[5] = compound: CCCS(=O)(=O)Nc1ccc(F)c(C(=O)c2c[nH]c3ncc(Cl)cc23)c1F
How it was run: as §1

[6] = compound: CCCc1cc(C)[nH]c(=O)c1CNC(=O)c1cc(-c2ccnc(N3CCN(C)CC3)c2)cc2c1cnn2C(C)C
How it was run: as §1

givinostat = compound: CCN(CC)Cc1ccc2cc(COC(=O)Nc3ccc(C(=O)NO)cc3)ccc2c1 [givinostat]
How it was run: as §1

barasertib = compound: CCN(CCCOc1ccc2c(Nc3cc(CC(=O)Nc4cccc(F)c4)[nH]n3)ncnc2c1)CCOP(=O)(O)O [barasertib]
How it was run: as §1

Measured: log2 fold change

BORCS6 (UniProt Q96GS4)
inactive: [1] 0.113 | [2] 0.029 | [3] 0.066 | [4] -0.007 | Nexturastat A -0.122 | vemurafenib 0.021 | [5] 0.009 | [6] -0.023 | givinostat 0.007 | barasertib 0.063

BRAP (UniProt Q7Z569)
inactive: [1] 0.057 | [2] 0.075 | [3] 0.023 | [4] 0.029 | Nexturastat A -0.031 | vemurafenib 0.037 | [5] 0.151 | [6] 0.08 | givinostat -0.081 | barasertib 0.08

BLOC1S4 (UniProt Q9NUP1)
inactive: [1] 0.014 | [2] 0.042 | [3] 0.024 | [4] 0.032 | Nexturastat A -0.111 | vemurafenib 0.114 | [5] -0.021 | [6] -0.001 | givinostat 0.041 | barasertib 0.061

BROX (UniProt Q5VW32)
inactive: [1] 0.061 | [2] -0.067 | [3] 0.01 | [4] 0.069 | Nexturastat A -0.113 | vemurafenib 0.099 | [5] 0.085 | [6] 0.052 | givinostat 0.036 | barasertib 0.029

BICD2 isoform 2 (UniProt Q8TD16)
inactive: [1] 0.016 | [2] -0.057 | [3] -0.012 | [4] 0.043 | Nexturastat A 0.012 | vemurafenib 0.043 | [5] 0.019 | [6] 0.034 | givinostat 0.059 | barasertib 0.092

2 records picked at random from the list so far, as already listed:
BROX (UniProt Q5VW32)
inactive: [1] 0.061 | [2] -0.067 | [3] 0.01 | [4] 0.069 | Nexturastat A -0.113 | vemurafenib 0.099 | [5] 0.085 | [6] 0.052 | givinostat 0.036 | barasertib 0.029

BLOC1S4 (UniProt Q9NUP1)
inactive: [1] 0.014 | [2] 0.042 | [3] 0.024 | [4] 0.032 | Nexturastat A -0.111 | vemurafenib 0.114 | [5] -0.021 | [6] -0.001 | givinostat 0.041 | barasertib 0.061

(list continues)

B3GNTL1 (UniProt Q67FW5)
inactive: [1] -0.001 | [2] -0.009 | [3] 0.031 | [4] -0.012 | Nexturastat A -0.009 | vemurafenib -0.094 | [5] 0.037 | [6] -0.062 | givinostat -0.037 | barasertib 0.021

BPGM (UniProt P07738)
inactive: [1] -0.044 | [2] 0 | [3] -0.019 | [4] 0.035 | Nexturastat A 0.016 | vemurafenib -0.068 | [5] -0.122 | [6] -0.103 | givinostat -0.015 | barasertib 0.051

BLOC1S5 (UniProt Q8TDH9)
inactive: [1] -0.027 | [2] 0.006 | [3] -0.047 | [4] 0.037 | Nexturastat A -0.051 | vemurafenib 0.029 | [5] 0.001 | [6] -0.015 | givinostat -0.046 | barasertib -0.028

BLOC1S6 (UniProt Q9UL45)
inactive: [1] 0.059 | [2] 0.013 | [3] -0.027 | [4] 0.038 | Nexturastat A -0.061 | vemurafenib 0.04 | [5] 0.034 | [6] 0.001 | givinostat 0.086 | barasertib -0.002

BCL10 (UniProt O95999)
inactive: [1] -0.001 | [2] 0.038 | [3] 0.042 | [4] -0.04 | Nexturastat A -0.002 | vemurafenib 0.038 | [5] 0.016 | [6] 0.031 | givinostat 0.005 | barasertib 0.046

BAP1 (UniProt Q92560)
active: Nexturastat A 0.403 | givinostat 0.495
inactive: [1] -0.067 | [2] -0.088 | [3] -0.149 | [4] -0.058 | vemurafenib -0.089 | [5] -0.055 | [6] 0.085 | barasertib -0.019

BECN1 (UniProt Q14457)
inactive: [1] -0.04 | [2] 0.029 | [3] 0 | [4] 0.04 | Nexturastat A 0.015 | vemurafenib 0.055 | [5] -0.01 | [6] -0.024 | givinostat -0.018 | barasertib -0.012

BAG6 isoform 3 (UniProt P46379)
inactive: [1] -0.021 | [2] -0.02 | [3] 0.025 | [4] 0.016 | Nexturastat A -0.01 | vemurafenib 0.035 | [5] 0.076 | [6] 0.009 | givinostat 0.014 | barasertib 0.025

BLVRB (UniProt P30043)
inactive: [1] 0.094 | [2] -0.023 | [3] -0.025 | [4] 0.027 | Nexturastat A -0.014 | vemurafenib 0.069 | [5] 0.063 | [6] 0.037 | givinostat 0.03 | barasertib 0.025

BRIX1 (UniProt Q8TDN6)
inactive: [1] 0.038 | [2] -0.061 | [3] -0.09 | [4] -0.134 | Nexturastat A 0.37 | vemurafenib -0.11 | [5] 0.008 | [6] 0.159 | givinostat 0.15 | barasertib -0.197

B3GALNT2 (UniProt Q8NCR0)
inactive: [1] -0.129 | [2] 0.115 | [3] -0.123 | [4] 0.039 | Nexturastat A -0.026 | vemurafenib -0.135 | [5] -0.324 | [6] -0.114 | givinostat 0 | barasertib 0.078

BOD1L1 (UniProt Q8NFC6)
inactive: [1] -0.03 | [2] 0.019 | [3] -0.044 | [4] -0.056 | Nexturastat A 0.08 | vemurafenib -0.013 | [5] -0.02 | [6] 0.022 | givinostat -0.009 | barasertib 0

AZGP1 (UniProt P25311)
inactive: [1] -0.004 | [2] -0.082 | [3] 0.403 | [4] -0.25 | Nexturastat A 0.195 | vemurafenib -0.101 | [5] -0.164 | [6] -0.108 | givinostat -0.18 | barasertib 0.176

BPHL (UniProt Q86WA6)
inactive: [1] -0.037 | [2] -0.031 | [3] -0.058 | [4] 0.017 | Nexturastat A -0.205 | vemurafenib 0.004 | [5] -0.062 | [6] 0.057 | givinostat 0.023 | barasertib -0.006

BNIP1 (UniProt Q12981)
inactive: [1] 0.005 | [2] 0.022 | [3] -0.008 | [4] 0.005 | Nexturastat A -0.049 | vemurafenib 0.009 | [5] 0.029 | [6] -0.051 | givinostat 0.038 | barasertib 0.019

BLOC1S3 (UniProt Q6QNY0)
inactive: [1] -0.03 | [2] 0.049 | [3] 0.046 | [4] 0.052 | Nexturastat A -0.031 | vemurafenib -0.049 | [5] -0.029 | [6] -0.058 | givinostat -0.016 | barasertib 0.021

ATRIP (UniProt Q8WXE1)
inactive: [1] 0.089 | [2] 0.026 | [3] -0.04 | [4] -0.04 | Nexturastat A -0.198 | vemurafenib -0.01 | [5] 0.076 | [6] -0.043 | givinostat 0.074 | barasertib -0.011

BMP2K (UniProt Q9NSY1)
inactive: [1] 0.01 | [2] 0.033 | [3] -0.017 | [4] -0.011 | Nexturastat A 0.126 | vemurafenib 0.011 | [5] 0.01 | [6] -0.04 | givinostat 0.007 | barasertib -0.014

BNIP2 (UniProt J3KN59)
inactive: [1] 0.01 | [2] 0.032 | [3] 0.028 | [4] -0.071 | Nexturastat A -0.256 | vemurafenib 0.016 | [5] 0.06 | [6] -0.147 | givinostat -0.035 | barasertib 0.017

BCL2L2 isoform 2 (UniProt Q92843)
inactive: [1] 0.07 | [2] 0.044 | [3] -0.017 | [4] 0.087 | Nexturastat A 0.073 | vemurafenib -0.003 | [5] -0.009 | [6] -0.031 | givinostat -0.028 | barasertib -0.043

B3GLCT (UniProt Q6Y288)
inactive: [1] 0.023 | [2] 0.033 | [3] 0.005 | [4] 0.02 | Nexturastat A -0.059 | vemurafenib -0.023 | [5] 0.077 | [6] 0.197 | givinostat -0.036 | barasertib -0.013

BAHCC1 (UniProt Q9P281)
inactive: [1] 0.009 | [2] -0.046 | [3] -0.106 | [4] -0.072 | Nexturastat A -0.057 | vemurafenib -0.163 | [5] -0.244 | [6] -0.522 | givinostat 0.043 | barasertib 0.061

BICD1 (UniProt Q96G01)
inactive: [1] 0.006 | [2] -0.082 | [3] 0.032 | [4] -0.043 | Nexturastat A 0.073 | vemurafenib 0.053 | [5] 0.02 | [6] -0.039 | givinostat 0.024 | barasertib 0.04

BRI3BP (UniProt Q8WY22)
inactive: [1] -0.009 | [2] 0.043 | [3] -0.018 | [4] -0.014 | Nexturastat A 0.119 | vemurafenib -0.105 | [5] -0.007 | [6] -0.063 | givinostat -0.066 | barasertib 0.038
